Patent US20110039770A1, “INHIBITORS OF PROTEIN KINASE C ISOFORMS AND USES THEREOF” (PHARMAGAP INC., priority 2005, published 2011)
At least one peptide structure holds a part that was inferred or is arguable (an end, a ring closure or a residue). At least one compound was matched to its structure with a doubt left. Where a SMILES comes first, the peptide text is derived from it. The star is where a group is joined. PNA(A) = NCCN(CC(=O)*)C(=O)Cn1cnc2c(N)ncnc21

Tested on: LS180 human colon cancer cells
Assay: Survival of doxorubicin-resistant colon cancer cells, trypan blue exclusion
Assay type: cell-based
Conditions: 72 hrs
Experimental: Highly tumourigenic human colon cancer cells (LS180; ATCC # CL-187) which constitutively express multi-drug resistance (MDR) were used for this experiment. LS180 cells were seeded in 6 well plates at a density of 2×10^5. After a 24 hr recovery cells were treated with 50 ng/ml of doxorubicin, 2.5 μM compound TIM 10, or a combination of doxorubicin and compound TIM 10 (2.5 μM and 5 μM) for 72 hrs. Note that compound TIM 10 was added to the cell culture medium; no protocol was used to force the compound into the cell. The cells were then trypsinized and counted using the standard trypan blue dye exclusion assay.

In the case of `CC[C@H](C)[C@H](NC(=O)[C@H](CO)NC(=O)[C@@H](NC(=O)CNC(=O)[C@@H](NC(=O)[C@H](CC(C)C)NC(=O)[C@H](CC(N)=O)NC(=O)[C@H](CCC(N)=O)NC(=O)[C@H](C)NC(=O)[C@H](CC(=O)O)NC(=O)[C@H](CCCCN)NC(=O)CNC(=O)CNC(=O)CNC(=O)CNC(=O)CNC(=O)CNC(=O)CNC(=O)[C@H](CC(C)C)NC(=O)[C@H](CCCNC(=N)N)NC(=O)[C@H](Cc1ccccc1)NC(=O)[C@H](CCCCNC(=O)CN(CCN)C(=O)Cn1cnc2c(N)ncnc21)NC(=O)[C@H](CCCNC(=N)N)NC(=O)[C@H](CCCNC(=N)N)NC(=O)[C@H](Cc1ccccc1)NC(C)=O)[C@@H](C)CC)[C@@H](C)CC)C(N)=O` [TIM 10] (Ac-FRRK(PNA(A))FRLGGGGGGGKDAQNLIGISI-NH2), the “cell death, combination with doxorubicin” value (2.5 μM and 5 μM + doxorubicin 50 ng/ml) was “highly effective at causing cell death” and the “cell death, compound alone” value (2.5 μM, added to medium) was “capable of causing cell death”.
